From patent US20220409665A1 come the findings set out here.

This test has as its target T1, CD70 trimer complex (human) (UniProt P32970).
T1 sequence (chain, site-specifically biotinylated via co-expression with BirA): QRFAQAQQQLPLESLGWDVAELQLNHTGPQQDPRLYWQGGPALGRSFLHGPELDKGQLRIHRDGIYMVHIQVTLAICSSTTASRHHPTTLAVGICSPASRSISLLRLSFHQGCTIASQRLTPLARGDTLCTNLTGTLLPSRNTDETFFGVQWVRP
The test is described as follows: SPR (Biacore T200), biotinylated CD70 trimer mutants captured on CAP surface, 100 nM Fab as analyte. For orientation: In SPR one partner is held on a chip, and binding of the other changes the refractive index at the surface.

These are yes or no findings as the source states them, for the method shown. Some results given as binding are weak or reduced against the parent protein; the word gives no strength.

B1: anti-CD70 antibody clone 8C8, Fab (Fab, V domains shown)
VH: EVQLVESGGGLVKPGGSLRLSCVASGFTFSSYSMNWVRQFPGKGLEWVSSISTSSNYIHYADSLQGRFTISRDNAKNSLYLQMSSLRVEDTAVYYCVRDKGTTLTNWYFDLWGRGTLVTVSS
VL: DMQMTQSPSSLSASVGDRVTLTCRASQGISNYLAWFQLKPGKVPKLLIYAASTLQSGVPSRFSGSGSGTDFALTISSLQPEDVATYYCQKYNSAPLTFGGGTKVEIK
For B1, the binding result is “binds”.
